# Reference: PubChem BioAssay (EPA / NIEHS)
# Protein sequences, listed by entry. Tags and fused reporters are not part of them. Lines headed by an entry give the natural chain unless they say otherwise; changes in a name come on top.
# UniProt P10827: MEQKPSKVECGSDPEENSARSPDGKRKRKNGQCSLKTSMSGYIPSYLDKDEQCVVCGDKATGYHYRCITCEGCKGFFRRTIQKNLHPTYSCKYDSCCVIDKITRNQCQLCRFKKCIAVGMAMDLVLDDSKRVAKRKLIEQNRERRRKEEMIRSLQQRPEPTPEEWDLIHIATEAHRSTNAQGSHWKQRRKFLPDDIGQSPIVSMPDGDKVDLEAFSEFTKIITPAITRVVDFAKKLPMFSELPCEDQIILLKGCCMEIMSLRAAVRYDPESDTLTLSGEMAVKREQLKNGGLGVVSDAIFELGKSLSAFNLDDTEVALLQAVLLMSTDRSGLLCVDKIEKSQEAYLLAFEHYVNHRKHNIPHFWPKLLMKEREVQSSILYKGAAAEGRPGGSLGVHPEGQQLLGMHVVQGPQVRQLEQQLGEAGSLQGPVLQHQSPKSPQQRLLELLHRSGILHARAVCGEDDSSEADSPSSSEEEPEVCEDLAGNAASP
# Where “and” joins values, the source holds several entries; their conditions need not be identical. Equal values may be shown once. The shares of active, inactive and inconclusive entries below differ from those in the screen. Potencies of inconclusive entries are doubtful fits and often do not repeat. Some structures have more than one record in an assay (separate samples or runs), and their calls can disagree. Calls of active or inactive are those of the source. Rule for the calls: active = hit-call score of the fitted dose curve at least 0.9, where 1 is the maximum; inconclusive = response in the unintended direction; inactive = score below 0.9.
# Target: human Thyroid Receptor alpha (THRa1), THRA (gene 7067) (UniProt P10827)
# Assay: ATG_THRa1_TRANS: Attagene TRANS-FACTORIAL HepG2 Assay for human Thyroid Receptor alpha (THRa1) (AID 2283014)
# Method: ATG_TRANS is a cell-based, multiplexed-readout assay that uses HepG2, a human liver cell line, with measurements taken at 24 hours after chemical dosing in a 24-well plate.ATG_THRa1_TRANS is one of 30 assay component(s) measured or calculated from the ATG_TRANS assay. It is designed to make measurements of mRNA induction, a form of inducible reporter, as detected with fluorescence intensity signals by Reverse transcription polymerase chain reaction (RT-PCR) and Capillary electrophoresis technology.Data from the assay component ATG_THRa1_TRANS was analyzed into 1 assay endpoint. This assay endpoint, ATG_THRa1_TRANS, was analyzed in the positive analysis fitting direction relative to DMSO as the negative control and baseline of activity. Using a type of inducible reporter, measures of mRNA for gain-of-signal activity can be used to understand the reporter gene at the transcription factor-level as they relate to the gene THRA. Furthermore, this assay endpoint can be referred to as a primary readout, because this assay has produced multiple assay endpoints where this one serves a reporter gene function. To generalize the intended target to other relatable targets, this assay endpoint is annotated to the nuclear receptor intended target family, where the subfamily is non-steroidal.
# Human liver HepG2 cells are transiently transfected with multiple reporter transcription units (MRTUs) in 6-well plates using FuGene 6 reagent (Roche; 3 ml FuGene/1 mg DNA). The MRTU constructs are regulated by a cis-regulating element (promoter). […] A major difference between the CIS and TRANS system is that in CIS activities of endogenous TFs are measured, whereas the TRANS assay evaluates changes in activities of exogenous, chimeric NR-Gal4 proteins. […] At the end of 24 hour incubation, total RNA was isolated using TriZol reagent (Invitrogen). The isolated RNA is then reverse-transcribed using oligo(dT) primer and Mo-MLV reverse transcriptase (Invitrogen) with DNAse I (Ambion) treatment for 30 min. The one-tenth of the produced cDNA was amplified by PCR using Taq DNA polymerase (Invitrogen) and two reporter sequence-specific primers. The PCR products were fluorescently labeled by primer extension with 6-arboxyfluorescein (6-FAM) 5'-labeled reporter sequence-specific primer (2 min at 95 C, 20 s at 68 C and 10 min at 72 C) and these products were digested with 5U of HpaI (New England Biolabs) for 2h at 37 C. The fragments were purified using Qiaquick PCR columns (Qiagen), analyzed on an ABI 3130xL genetic analyzer (Applied Biosystems) with peak positions identified by using a set of X-rhodamine (ROX)-labeled MapMarker1000 molecular weight standards (BioVentures). The raw capillary electrophoresis data was processed using Attagraph software (Attagene).
SMILES,AC50,outcome
CCCCC(O)(Cn1cncn1)c1ccc(Cl)cc1Cl (stereo not given),inconclusive: 0.88 µM,
OCCOc1ccccc1,,inactive
C[C@]12CCC(=O)C(O)=C1CC[C@@H]1[C@@H]2CC[C@]2(C)C(=O)CC[C@@H]12,inconclusive: 100 µM,
CNC(=O)Oc1ccccc1OC(C)C,inconclusive: 0.252 µM,
NC(=O)C(F)(F)C(F)(F)F,,inactive
OCCCCO,inconclusive: 100 µM,
CCOP(=O)(OCC)Oc1nc(Cl)c(Cl)cc1Cl,inconclusive: 50 µM,
N#Cc1c(-c2ccc(Cl)cc2)[nH]c(C(F)(F)F)c1Br,,inactive
CC(=O)C(Cl)C(=O)N(C)C (stereo not given),,inactive
CCCN(CCOc1c(Cl)cc(Cl)cc1Cl)C(=O)n1ccnc1,inconclusive: 2.87 µM,
O=S(=O)(O)C(F)(F)C(F)(F)C(F)(F)C(F)(F)F,inconclusive: 150 µM and inconclusive: 258 µM,
Cc1ccc([N+](=O)[O-])cc1C,inconclusive: 1.02 µM,
O=P1(N(CCCl)CCCl)NCCCO1 (stereo not given),inconclusive: 1.75 µM,
C[C@H]1CCCC(=O)CCC/C=C/c2cc(O)cc(O)c2C(=O)O1,,inactive
COc1nn(CSP(=S)(OC)OC)c(=O)s1,,inactive

# Six compounds already listed, arranged by molar mass, rising:
SMILES,AC50,outcome
OCCOc1ccccc1,,inactive
Cc1ccc([N+](=O)[O-])cc1C,inconclusive: 1.02 µM,
NC(=O)C(F)(F)C(F)(F)F,,inactive
CNC(=O)Oc1ccccc1OC(C)C,inconclusive: 0.252 µM,
O=P1(N(CCCl)CCCl)NCCCO1 (stereo not given),inconclusive: 1.75 µM,
CCCN(CCOc1c(Cl)cc(Cl)cc1Cl)C(=O)n1ccnc1,inconclusive: 2.87 µM,

# More records.

SMILES,AC50,outcome
CC1(c2ccc(Oc3ccccc3)cc2)OC(=O)N(Nc2ccccc2)C1=O (stereo not given),,inactive
CCCSP(=O)(OCC)SCCC,inconclusive: 3.97 µM,
Clc1ccc(C(c2ccccc2Cl)C(Cl)(Cl)Cl)cc1 (stereo not given),inconclusive: 1.82 µM,inactive
ClC1=C(Cl)[C@]2(Cl)[C@@H]3[C@@H](Cl)[C@@H](Cl)C[C@@H]3[C@@]1(Cl)C2(Cl)Cl,inconclusive: 85 µM,
O=C(O)C(F)(F)OC(F)(F)C(F)(F)OC(F)(F)F,inconclusive: 150 µM,
CC(C)(C)C(O)C(Oc1ccc(-c2ccccc2)cc1)n1cncn1 (stereo not given),inconclusive: 33.4 µM,
CC(=Cc1ccccc1)[N+](=O)[O-],inconclusive: 2.81 µM,
CCCCCCCCCCCCCN1CC(C)OC(C)C1 (stereo not given),,inactive
CO/C=C(/C(=O)OC)c1ccccc1Oc1cc(Oc2ccccc2C#N)ncn1,active: 12.2 µM,
O=C(Nc1ccccc1-c1ccc(Cl)cc1)c1cccnc1Cl,,inactive
C=CC(=O)OCC(CC)CCCC (stereo not given),inconclusive: 100 µM,
COc1ccc(-c2ccccc2)cc1NNC(=O)OC(C)C,inconclusive: 0.452 µM,
O=c1[nH]c(=O)[nH]c(=O)[nH]1,inconclusive: 99.5 µM,
